No constants are given. Whether binding was seen depends on the method and setting. Binding seen in cells or lysates may run through a third protein. Here binding means that the protein was enriched with, or labelled near, the bait; the list need not be complete. Sequences can lack the tags named with a protein.
T1: FLAG-BirA*-TBCCD1 (human TBCC domain-containing protein 1) (human) (UniProt Q9NVR7)
T1 sequence: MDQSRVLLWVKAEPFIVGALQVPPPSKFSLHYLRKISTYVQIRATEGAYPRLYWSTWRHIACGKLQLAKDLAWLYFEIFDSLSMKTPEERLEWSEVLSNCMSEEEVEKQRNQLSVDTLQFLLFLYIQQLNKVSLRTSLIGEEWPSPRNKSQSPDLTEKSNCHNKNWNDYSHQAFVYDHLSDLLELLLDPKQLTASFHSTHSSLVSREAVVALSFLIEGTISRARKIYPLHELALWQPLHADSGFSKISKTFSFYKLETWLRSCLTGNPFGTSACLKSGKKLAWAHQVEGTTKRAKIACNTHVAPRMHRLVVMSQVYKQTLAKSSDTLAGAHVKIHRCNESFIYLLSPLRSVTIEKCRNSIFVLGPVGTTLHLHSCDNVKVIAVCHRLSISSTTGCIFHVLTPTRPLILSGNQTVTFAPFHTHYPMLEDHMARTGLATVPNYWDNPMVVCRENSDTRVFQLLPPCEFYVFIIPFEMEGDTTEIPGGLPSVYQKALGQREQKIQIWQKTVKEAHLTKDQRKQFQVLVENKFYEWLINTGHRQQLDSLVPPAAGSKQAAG

B1: CEP162 (protein, UniProt Q5TB80 1-1403)
chain: MANCSQEELDEEFEQFMKELSDDSFENSDKTARQSKKEMKKKDTVPWWITEDDFKDDGLLGTNVSYLKTKKTSQPVMEIEEESAEKIQFLKSSGTSLLSTDSLETNELVVSELNHSSLGVGLDTLEEQEEKEQFFARLEKGLTSSIDYSRLNKELDSNDSTHFKALHSNQANAELTDDEHENESKHEELAENYSDDFEDEYVGAPLTTKDEEMPSKENSKSEKISVPKQEEEKTGMLANVVLLDSLDSVAEVNLDEQDKITPKPRCLPEMTENEMTGTGVSYGQSSSDVEALHQAYCHIAHSLGDEDKQKIESNTVEDIKSSVKGHPQENEENSKNISTMESDLPTVEELMKPIRIDSFGISGFDLQPVSSEKVAERKETEFFSSLPLKMNPNILSQDSQHVNLFFDKNDENVILQKTTNESMENSCPQVTEVTATEEHVDKMYLNILRKKITVNSSSLSQDDKINKTYRSQLSSEEEGAVMGKQVPYKKARSAPPLLKRKPQSGLYASVRSSGYGKPSSPLKMFSTLEKKTSEDIIKSKNLRSISTSNQPRKKEILSGTKLIKPAALDKPAHKTESCLSTRKKSENPTETDSCIQFQTDSLGYCGENKEKKLLMFKRVQEAEDKWRGAQALIEQIKATFSEKEKELENKLEELKKQQEKELFKLNQDNYILQAKLSSFEETNKKQRWLHFGEAADPVTGEKLKQIQKEIQEQETLLQGYQQENERLYNQVKDLQEQNKKNEERMFKENQSLFSEVASLKEQMHKSRFLSQVVEDSEPTRNQNFTDLLAELRMAQKEKDSLLEDIKRLKQDKQALEVDFEKMKKERDQAKDQIAYVTGEKLYEIKILEETHKQEISRLQKRLQWYAENQELLDKDALRLREANEEIEKLKLEIEKLKAESGNPSIRQKIRLKDKAADAKKIQDLERQVKEMEGILKRRYPNSLPALILAASAAGDTVDKNTVEFMEKRIKKLEADLEGKDEDAKKSLRTMEQQFQKMKIQYEQRLEQQEQLLACKLNQHDSPRIKALEKELDDIKEAHQITVRNLEAEIDVLKHQNAELDVKKNDKDDEDFQSIEFQVEQAHAKAKLVRLNEELAAKKREIQDLSKTVERLQKDRRMMLSNQNSKGREEMSAKRAKKDVLHSSKGNANSFPGTLDSKLYQPHTFTDSHVSEVLQENYRLKNELEGLISEKNELKMKSEAVMNQFENSMRRVKEDTAAHIASLKASHQREIEKLLCQNAVENSSSKVAELNRKIATQEVLIRHFQSQVNELQSKQESLVVSEVREEILQKEITKLLEELREAKENHTPEMKHFVGLEKKIKQMEMRHAQREQELQQIIQQTHQVVETEQNKEVEKWKRLAQLKNRELEKFRTELDSILDVLRELHRQGVVVPVAFADEMNAPEY
B2: MPHOSPH9 (protein, UniProt Q99550 1-1183)
chain: MEEFDLVKTLHKTSSSVGSDENSLHSLGLNLNTDRSSPHLSTNGVSSFSGKTRPSVIQGTVEVLTSLMQELQNSGKTDSELWKNCETRWLQLFNLVEKQCQEQIVAQQEQFHNQIQHIQEEIKNLVKLQTSSASLASCEGNSSNKQVSSESQMGFFSLSSERNESVIHYPESTEPEIQQEMSTSQPDCNVDSCSVSSGYGTFCISELNLYKSKDPKEFMEHIDVPKGQYVAPAVPAESLVDGVKNENFYIQTPEECHVSLKEDVSISPGEFEHNFLGENKVSEVYSGKTNSNAITSWAQKLKQNQPKRAHVEDGGSRSKQGNEQSKKTPIEKSDFAAATHPRAFYLSKPDETPNAWMSDSGTGLTYWKLEEKDMHHSLPETLEKTFISLSSTDVSPNQSNTSNEMKLPSLKDIYYKKQRENKQLPERNLTSASNPNHPPEVLTLDPTLHMKPKQQISGIQPHGLPNALDDRISFSPDSVLEPSMSSPSDIDSFSQASNVTSQLPGFPKYPSHTKASPVDSWKNQTFQNESRTSSTFPSVYTITSNDISVNTVDEENTVMVASASVSQSQLPGTANSVPECISLTSLEDPVILSKIRQNLKEKHARHIADLRAYYESEINSLKQKLEAKEISGVEDWKITNQILVDRCGQLDSALHEATSRVRTLENKNNLLEIEVNDLRERFSAASSASKILQERIEEMRTSSKEKDNTIIRLKSRLQDLEEAFENAYKLSDDKEAQLKQENKMFQDLLGEYESLGKEHRRVKDALNTTENKLLDAYTQISDLKRMISKLEAQVKQVEHENMLSLRHNSRIHVRPSRANTLATSDVSRRKWLIPGAEYSIFTGQPLDTQDSNVDNQLEETCSLGHRSPLEKDSSPGSSSTSLLIKKQRETSDTPIMRALKELDEGKIFKNWGTQTEKEDTSNINPRQTETSVNASRSPEKCAQQRQKRLNSASQRSSSLPPSNRKSSTPTKREIMLTPVTVAYSPKRSPKENLSPGFSHLLSKNESSPIRFDILLDDLDTVPVSTLQRTNPRKQLQFLPLDDSEEKTYSEKATDNHVNHSSCPEPVPNGVKKVSVRTAWEKNKSVSYEQCKPVSVTPQGNDFEYTAKIRTLAETERFFDELTKEKDQIEAALSRMPSPGGRITLQTRLNQEALEDRLERINRELGSVRMTLKKFHVLRTSANL
B3: CEP90/PIBF1 (protein, UniProt Q8WXW3 1-757)
chain: MSRKISKESKKVNISSSLESEDISLETTVPTDDISSSEEREGKVRITRQLIERKELLHNIQLLKIELSQKTMMIDNLKVDYLTKIEELEEKLNDALHQKQLLTLRLDNQLAFQQKDASKYQELMKQEMETILLRQKQLEETNLQLREKAGDVRRNLRDFELTEEQYIKLKAFPEDQLSIPEYVSVRFYELVNPLRKEICELQVKKNILAEELSTNKNQLKQLTETYEEDRKNYSEVQIRCQRLALELADTKQLIQQGDYRQENYDKVKSERDALEQEVIELRRKHEILEASHMIQTKERSELSKEVVTLEQTVTLLQKDKEYLNRQNMELSVRCAHEEDRLERLQAQLEESKKAREEMYEKYVASRDHYKTEYENKLHDELEQIRLKTNQEIDQLRNASREMYERENRNLREARDNAVAEKERAVMAEKDALEKHDQLLDRYRELQLSTESKVTEFLHQSKLKSFESERVQLLQEETARNLTQCQLECEKYQKKLEVLTKEFYSLQASSEKRITELQAQNSEHQARLDIYEKLEKELDEIIMQTAEIENEDEAERVLFSYGYGANVPTTAKRRLKQSVHLARRVLQLEKQNSLILKDLEHRKDQVTQLSQELDRANSLLNQTQQPYRYLIESVRQRDSKIDSLTESIAQLEKDVSNLNKEKSALLQTKNQMALDLEQLLNHREELAAMKQILVKMHSKHSENSLLLTKTEPKHVTENQKSKTLNVPKEHEDNIFTPKPTLFTKKEAPEWSKKQKMKT
B4: KIAA0753/Moonraker/OFIP (protein, UniProt Q2KHM9 1-967)
chain: MGPGQPASTCVHLAPRTQLDGRSDPKVLQTQNQLQFNRNVPTHSSNLAIRYSCPHAIRIEKLKHSYNESYHCKDADCRVGPDLGSSVSFSVISQERLSYAVHLARRDVKRRQFEKHIKEHHLRSQPQSSQKCGHTKYKIPDHRVERKESKSQAACQCSHQPSKVEISSSGAKVYLYSSHPGQSDLTVPNSPPTHDPGLQPHPRIGDHKNISEQKSLLEVQRLQKELSSCIHKIEEVTKKDRLEEALDPDEERRIRIRRQEQAARSARMLYVLQQQVKEIQEELDKLSPHKIKHTKKSWAMSKLAAAHRGAIRALQMFVTQFTDRGEHPLPARCKELGSLIRQLSLCSVKLDADPSVPDVVIDILQQIEALESLLEKKLSPKKVKKCFSEIRSRFPIGSQKALERWPSTSPKGERRPLTAKDTFPQETSRPSVAKQLLADKYQPDTELPETQRLQSELDVLDADIVLEEGPFILDQSASFKDEVLAVAKTKAGKKKPVTENVPFRKKDTLAPARQQGLRKAERGRQSQPHSKSRVQQTTVSSRLKMNRQPVKDRKAPWIPPNPTSPPASPKCAAWLKVKTSPRDATKEPLQQEDPQEESHLTGAVEHEAARLAWLDAETSKRLKELEELKAKEIDSMQKQRLDWLDAETSRRTKELNELKAEEMYRLQQLSVSATHLADKVEEAVLDRLKPLLVKAQRVNSTTEANIHLKDGSSVNTAKAQPAQEVAAVDFESNNIRQLDDFLEDCASELWAVTHAKILGSETLATVEDSKDSPDLEIMMRRMEEMEKYQESVRQRYNKIAYADPRLWMQEENNDQKISAISEKPLSPHPIRITKTVDRKDPAVNIMLERPCNGNSLDESVGTEEGSEKREAPLLSLAEDSQQKEGRAPLFVPPGMQHSIGDYCSRFEQYLRIISHEAVGSFNPWLIAESFSEELVDEALGAVAAELQDMCEDYAEAVFTSEFLEAAT

Biological target: T1, FLAG-BirA*-TBCCD1 (human TBCC domain-containing protein 1) (human)
Assay: proximity labelling

| Binder | binding |
| --- | --- |
| B1 | binds |
| B2 | binds |
| B3 | binds |
| B4 | binds |
